# Test results published in article PMC12586529.
# B1: Protein kinase C iota (Prkci) (enzyme, UniProt P41743 1-596)
# chain: MPTQRDSSTMSHTVAGGGSGDHSHQVRVKAYYRGDIMITHFEPSISFEGLCNEVRDMCSFDNEQLFTMKWIDEEGDPCTVSSQLELEEAFRLYELNKDSELLIHVFPCVPERPGMPCPGEDKSIYRRGARRWRKLYCANGHTFQAKRFNRRAHCAICTDRIWGLGRQGYKCINCKLLVHKKCHKLVTIECGRHSLPQEPVMPMDQSSMHSDHAQTVIPYNPSSHESLDQVGEEKEAMNTRESGKASSSLGLQDFDLLRVIGRGSYAKVLLVRLKKTDRIYAMKVVKKELVNDDEDIDWVQTEKHVFEQASNHPFLVGLHSCFQTESRLFFVIEYVNGGDLMFHMQRQRKLPEEHARFYSAEISLALNYLHERGIIYRDLKLDNVLLDSEGHIKLTDYGMCKEGLRPGDTTSTFCGTPNYIAPEILRGEDYGFSVDWWALGVLMFEMMAGRSPFDIVGSSDNPDQNTEDYLFQVILEKQIRIPRSLSVKAASVLKSFLNKDPKERLGCHPQTGFADIQGHPFFRNVDWDMMEQKQVVPPFKPNISGEFGLDNFDSQFTNEPVQLTPDDDDIVRKIDQSEFEGFEYINPLLMSAEECV
# Tests used:
# [1] = target: c-Myc 1-50 aa segment (human); assay: co-IP; lysates incubated with a target-specific primary antibody 2-4 h at 4 °C, then Protein A/G agarose or magnetic beads 1-2 h; washed with lysis buffer; SDS-PAGE and Western blot
# [2] = target: c-Myc 1-150 aa segment (human); assay: as above
binder,measurement,setting,value
B1,binding,[1],binds
same,binding,[2],binds

# These are yes or no findings as the source states them, for the method shown. Binding seen in cells or lysates may run through a third protein. A result given as binding can be weak or reduced; the word gives no strength.
